These are yes or no findings as the source states them, for the method shown. In cells and extracts the contact can be indirect. These calls come from enrichment with a bait or labelling near it, and not all partners need be listed.
Target: MUC5ac mucin (PAM4 antigen) from CaPan1 human pancreatic carcinoma (human) (UniProt P98088)
Experiment: immunoprecipitation from cyst fluids, PAGE and mass spectrometry

Chains of the proteins cited; added tags and fusions are not shown. Residues count along the entry.
UniProt P98088, residues 28-5654: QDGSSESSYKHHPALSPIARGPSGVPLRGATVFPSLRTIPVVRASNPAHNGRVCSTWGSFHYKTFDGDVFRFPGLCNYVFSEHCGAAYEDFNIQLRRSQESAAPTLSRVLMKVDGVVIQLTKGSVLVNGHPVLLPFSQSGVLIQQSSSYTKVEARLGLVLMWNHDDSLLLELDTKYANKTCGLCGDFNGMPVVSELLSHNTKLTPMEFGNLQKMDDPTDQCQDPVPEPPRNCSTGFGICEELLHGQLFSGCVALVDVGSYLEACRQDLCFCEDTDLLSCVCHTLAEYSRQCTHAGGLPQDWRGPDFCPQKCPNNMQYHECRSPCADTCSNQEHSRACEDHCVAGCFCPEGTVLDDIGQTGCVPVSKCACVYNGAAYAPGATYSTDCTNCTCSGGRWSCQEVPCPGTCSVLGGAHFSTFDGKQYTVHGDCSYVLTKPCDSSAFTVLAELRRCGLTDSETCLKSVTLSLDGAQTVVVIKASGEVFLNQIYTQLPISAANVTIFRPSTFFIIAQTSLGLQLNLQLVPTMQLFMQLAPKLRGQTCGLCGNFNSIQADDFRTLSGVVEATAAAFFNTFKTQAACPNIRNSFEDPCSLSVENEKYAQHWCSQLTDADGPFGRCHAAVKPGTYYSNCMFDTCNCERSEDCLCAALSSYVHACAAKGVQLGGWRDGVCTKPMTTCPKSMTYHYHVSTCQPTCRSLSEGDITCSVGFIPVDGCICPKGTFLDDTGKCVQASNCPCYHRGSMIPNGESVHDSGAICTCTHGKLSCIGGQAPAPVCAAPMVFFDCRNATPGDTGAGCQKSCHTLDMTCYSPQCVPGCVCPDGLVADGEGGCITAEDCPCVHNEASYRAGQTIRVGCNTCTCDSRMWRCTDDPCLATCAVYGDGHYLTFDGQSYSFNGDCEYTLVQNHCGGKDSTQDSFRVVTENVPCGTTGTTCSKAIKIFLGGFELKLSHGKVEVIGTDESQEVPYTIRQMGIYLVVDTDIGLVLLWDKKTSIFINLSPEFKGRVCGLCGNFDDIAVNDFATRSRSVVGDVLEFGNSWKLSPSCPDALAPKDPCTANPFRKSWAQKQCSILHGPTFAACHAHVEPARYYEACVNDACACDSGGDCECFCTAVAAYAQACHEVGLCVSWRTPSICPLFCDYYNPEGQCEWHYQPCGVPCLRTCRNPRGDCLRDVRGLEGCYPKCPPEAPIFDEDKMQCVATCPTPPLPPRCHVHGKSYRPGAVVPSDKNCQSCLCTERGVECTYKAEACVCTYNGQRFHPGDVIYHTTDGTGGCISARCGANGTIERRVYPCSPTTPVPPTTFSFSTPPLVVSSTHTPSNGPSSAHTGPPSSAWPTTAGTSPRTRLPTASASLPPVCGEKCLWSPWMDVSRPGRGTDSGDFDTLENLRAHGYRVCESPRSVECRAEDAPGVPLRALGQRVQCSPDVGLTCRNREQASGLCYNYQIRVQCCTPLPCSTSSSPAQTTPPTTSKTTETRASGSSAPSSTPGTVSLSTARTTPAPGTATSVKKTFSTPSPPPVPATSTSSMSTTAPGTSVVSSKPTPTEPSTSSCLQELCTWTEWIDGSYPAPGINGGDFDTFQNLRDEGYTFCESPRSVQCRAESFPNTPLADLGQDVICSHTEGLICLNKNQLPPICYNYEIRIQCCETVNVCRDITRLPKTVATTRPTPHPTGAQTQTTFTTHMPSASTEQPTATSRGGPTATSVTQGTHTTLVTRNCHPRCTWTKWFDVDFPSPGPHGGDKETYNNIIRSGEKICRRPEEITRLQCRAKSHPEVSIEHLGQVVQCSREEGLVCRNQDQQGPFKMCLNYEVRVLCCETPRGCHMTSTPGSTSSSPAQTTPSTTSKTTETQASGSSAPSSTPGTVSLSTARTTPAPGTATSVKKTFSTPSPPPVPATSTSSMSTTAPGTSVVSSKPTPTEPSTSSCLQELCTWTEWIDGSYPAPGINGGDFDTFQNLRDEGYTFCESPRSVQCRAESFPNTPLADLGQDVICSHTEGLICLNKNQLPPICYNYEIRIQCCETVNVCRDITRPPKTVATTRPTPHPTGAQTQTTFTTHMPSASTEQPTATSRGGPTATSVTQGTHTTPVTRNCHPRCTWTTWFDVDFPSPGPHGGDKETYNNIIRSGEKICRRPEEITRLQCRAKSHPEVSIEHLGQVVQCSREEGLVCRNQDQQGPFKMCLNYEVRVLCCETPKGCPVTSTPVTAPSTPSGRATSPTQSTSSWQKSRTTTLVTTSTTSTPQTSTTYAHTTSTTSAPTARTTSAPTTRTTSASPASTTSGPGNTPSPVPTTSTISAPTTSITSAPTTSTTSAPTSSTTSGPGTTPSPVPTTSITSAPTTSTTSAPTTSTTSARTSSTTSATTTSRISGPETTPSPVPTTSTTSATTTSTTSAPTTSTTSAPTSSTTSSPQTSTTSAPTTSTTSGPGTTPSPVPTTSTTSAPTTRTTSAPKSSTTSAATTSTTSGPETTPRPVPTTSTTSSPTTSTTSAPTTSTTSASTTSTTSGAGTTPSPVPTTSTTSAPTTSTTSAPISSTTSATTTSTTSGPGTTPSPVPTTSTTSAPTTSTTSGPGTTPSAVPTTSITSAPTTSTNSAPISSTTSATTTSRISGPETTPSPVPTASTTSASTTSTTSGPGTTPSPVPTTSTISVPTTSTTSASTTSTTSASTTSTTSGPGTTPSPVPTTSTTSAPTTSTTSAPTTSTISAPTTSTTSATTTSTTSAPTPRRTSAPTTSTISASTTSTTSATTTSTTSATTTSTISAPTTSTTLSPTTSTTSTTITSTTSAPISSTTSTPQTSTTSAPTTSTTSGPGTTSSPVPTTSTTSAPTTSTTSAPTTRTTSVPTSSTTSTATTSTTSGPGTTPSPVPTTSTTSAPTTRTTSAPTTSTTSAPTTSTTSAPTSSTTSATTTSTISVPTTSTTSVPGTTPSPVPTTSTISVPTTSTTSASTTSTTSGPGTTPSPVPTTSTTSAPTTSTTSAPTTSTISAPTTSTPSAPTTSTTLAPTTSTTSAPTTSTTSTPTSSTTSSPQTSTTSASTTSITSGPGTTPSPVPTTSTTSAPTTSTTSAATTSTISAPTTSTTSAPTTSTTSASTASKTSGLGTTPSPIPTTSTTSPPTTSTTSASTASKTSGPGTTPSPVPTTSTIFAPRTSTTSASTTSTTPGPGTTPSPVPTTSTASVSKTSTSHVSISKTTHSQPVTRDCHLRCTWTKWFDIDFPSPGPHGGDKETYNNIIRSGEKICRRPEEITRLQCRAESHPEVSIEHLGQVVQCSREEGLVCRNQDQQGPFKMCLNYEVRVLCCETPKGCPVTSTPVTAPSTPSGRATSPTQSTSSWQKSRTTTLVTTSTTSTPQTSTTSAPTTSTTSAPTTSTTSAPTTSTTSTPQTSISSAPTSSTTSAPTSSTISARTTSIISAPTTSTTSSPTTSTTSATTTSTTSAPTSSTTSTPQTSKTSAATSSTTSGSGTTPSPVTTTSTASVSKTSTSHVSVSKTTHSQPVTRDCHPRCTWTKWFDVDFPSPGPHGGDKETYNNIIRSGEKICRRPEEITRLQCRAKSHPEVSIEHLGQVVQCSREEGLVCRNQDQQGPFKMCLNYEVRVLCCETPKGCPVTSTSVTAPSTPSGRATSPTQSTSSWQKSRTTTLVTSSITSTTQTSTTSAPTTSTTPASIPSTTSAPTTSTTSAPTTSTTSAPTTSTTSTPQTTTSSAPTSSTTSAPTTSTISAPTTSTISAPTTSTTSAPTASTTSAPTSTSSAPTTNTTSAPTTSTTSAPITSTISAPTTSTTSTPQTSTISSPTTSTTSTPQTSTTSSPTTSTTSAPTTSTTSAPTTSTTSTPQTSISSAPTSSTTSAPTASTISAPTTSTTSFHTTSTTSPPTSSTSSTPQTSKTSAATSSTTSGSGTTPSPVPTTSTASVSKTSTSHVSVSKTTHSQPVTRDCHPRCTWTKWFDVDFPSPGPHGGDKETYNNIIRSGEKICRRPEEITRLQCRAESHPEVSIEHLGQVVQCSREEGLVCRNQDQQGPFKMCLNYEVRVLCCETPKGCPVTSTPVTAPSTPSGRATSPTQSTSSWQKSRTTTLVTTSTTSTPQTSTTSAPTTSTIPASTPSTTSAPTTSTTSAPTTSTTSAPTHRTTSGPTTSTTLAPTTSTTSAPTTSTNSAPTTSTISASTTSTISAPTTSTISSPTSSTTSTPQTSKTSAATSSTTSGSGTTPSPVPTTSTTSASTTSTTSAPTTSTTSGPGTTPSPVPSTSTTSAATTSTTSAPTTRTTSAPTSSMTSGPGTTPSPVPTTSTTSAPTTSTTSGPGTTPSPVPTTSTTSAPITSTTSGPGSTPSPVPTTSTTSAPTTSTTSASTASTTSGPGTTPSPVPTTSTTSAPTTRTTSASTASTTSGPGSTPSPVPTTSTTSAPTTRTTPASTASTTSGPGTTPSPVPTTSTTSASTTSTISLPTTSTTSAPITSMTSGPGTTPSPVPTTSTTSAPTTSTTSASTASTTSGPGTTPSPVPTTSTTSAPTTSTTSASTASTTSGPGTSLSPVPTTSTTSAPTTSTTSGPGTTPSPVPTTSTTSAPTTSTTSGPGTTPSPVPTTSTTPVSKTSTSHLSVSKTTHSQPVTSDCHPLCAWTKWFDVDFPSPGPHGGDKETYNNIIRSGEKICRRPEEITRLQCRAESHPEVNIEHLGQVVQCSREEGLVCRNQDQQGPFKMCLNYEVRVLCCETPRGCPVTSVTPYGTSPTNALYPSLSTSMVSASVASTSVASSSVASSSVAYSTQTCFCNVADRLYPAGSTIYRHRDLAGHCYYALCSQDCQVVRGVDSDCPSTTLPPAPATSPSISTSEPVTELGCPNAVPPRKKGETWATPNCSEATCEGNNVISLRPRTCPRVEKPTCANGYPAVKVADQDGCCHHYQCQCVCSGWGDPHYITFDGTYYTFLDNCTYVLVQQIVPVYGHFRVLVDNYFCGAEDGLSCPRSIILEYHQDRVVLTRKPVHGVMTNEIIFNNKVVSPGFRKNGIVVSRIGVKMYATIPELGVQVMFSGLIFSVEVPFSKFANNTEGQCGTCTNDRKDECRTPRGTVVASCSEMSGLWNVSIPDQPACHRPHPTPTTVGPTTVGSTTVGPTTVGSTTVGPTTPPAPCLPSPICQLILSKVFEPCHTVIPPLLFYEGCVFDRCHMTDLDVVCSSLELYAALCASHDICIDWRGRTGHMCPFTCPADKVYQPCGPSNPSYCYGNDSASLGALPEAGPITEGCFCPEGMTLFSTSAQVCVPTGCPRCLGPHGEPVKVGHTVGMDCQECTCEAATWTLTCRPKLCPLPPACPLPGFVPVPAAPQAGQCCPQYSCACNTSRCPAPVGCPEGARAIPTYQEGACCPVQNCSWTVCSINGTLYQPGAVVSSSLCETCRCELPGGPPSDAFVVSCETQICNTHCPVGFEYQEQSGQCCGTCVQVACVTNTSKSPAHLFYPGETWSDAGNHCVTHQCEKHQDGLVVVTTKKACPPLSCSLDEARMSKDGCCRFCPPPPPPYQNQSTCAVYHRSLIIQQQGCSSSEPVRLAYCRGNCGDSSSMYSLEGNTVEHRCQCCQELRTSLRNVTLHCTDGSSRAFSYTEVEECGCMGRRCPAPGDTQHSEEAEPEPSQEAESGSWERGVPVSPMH

B1: PAM4 antibody (version not stated where used) (antibody, V domains shown)
VH: EVQLQESGPELVKPGASVKMSCKASGYTFPSYVLHWVKQKPGQGLEWIGYINPYNDGTQYNEKFKGKATLTSDKSSSTAYMELSRLTSEDSAVYYCARGFGGSYGFAYWGQGTLITVSA
VL: DIVMTQSPAIMSASPGEKVTMTCSASSSVSSSYLYWYQQKPGSSPKLWIYSTSNLASGVPARFSGSGSGTSYSLTISSMEAEDAASYFCHQWNRYPYTFGGGTKLEIK
Q: B1 was tested. Which binding did it give?
A: binds

Source: patent publication US20140227179A1
